Data as given in the supplement of paper PMC12819154, “High-throughput peptide-centric local stability assay extends protein–ligand identification to membrane proteins, tissues and bacteria” (Nature Structural & Molecular Biology, 2025).
The other results are listed elsewhere or left out. Small differences around the control level are noise.

Amino acid sequences for entries named in this document (tags omitted). A change or cut given only in a name is not applied to a line headed by its entry.
UniProt P36915, whole entry: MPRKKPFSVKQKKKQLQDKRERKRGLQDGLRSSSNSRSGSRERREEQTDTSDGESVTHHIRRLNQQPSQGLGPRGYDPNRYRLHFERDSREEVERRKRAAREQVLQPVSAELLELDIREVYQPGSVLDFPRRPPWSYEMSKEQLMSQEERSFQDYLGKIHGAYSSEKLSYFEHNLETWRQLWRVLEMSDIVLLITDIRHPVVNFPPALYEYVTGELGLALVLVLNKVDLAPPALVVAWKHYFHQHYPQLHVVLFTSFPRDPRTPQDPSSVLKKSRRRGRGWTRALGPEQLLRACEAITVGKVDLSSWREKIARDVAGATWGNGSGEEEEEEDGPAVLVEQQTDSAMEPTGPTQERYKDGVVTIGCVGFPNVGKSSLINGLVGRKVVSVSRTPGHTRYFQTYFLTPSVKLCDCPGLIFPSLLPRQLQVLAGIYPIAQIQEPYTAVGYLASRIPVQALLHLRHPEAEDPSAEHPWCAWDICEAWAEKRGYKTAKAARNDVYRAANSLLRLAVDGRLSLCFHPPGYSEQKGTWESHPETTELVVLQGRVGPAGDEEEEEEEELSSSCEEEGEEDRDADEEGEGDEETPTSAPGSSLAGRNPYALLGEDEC
UniProt P30307: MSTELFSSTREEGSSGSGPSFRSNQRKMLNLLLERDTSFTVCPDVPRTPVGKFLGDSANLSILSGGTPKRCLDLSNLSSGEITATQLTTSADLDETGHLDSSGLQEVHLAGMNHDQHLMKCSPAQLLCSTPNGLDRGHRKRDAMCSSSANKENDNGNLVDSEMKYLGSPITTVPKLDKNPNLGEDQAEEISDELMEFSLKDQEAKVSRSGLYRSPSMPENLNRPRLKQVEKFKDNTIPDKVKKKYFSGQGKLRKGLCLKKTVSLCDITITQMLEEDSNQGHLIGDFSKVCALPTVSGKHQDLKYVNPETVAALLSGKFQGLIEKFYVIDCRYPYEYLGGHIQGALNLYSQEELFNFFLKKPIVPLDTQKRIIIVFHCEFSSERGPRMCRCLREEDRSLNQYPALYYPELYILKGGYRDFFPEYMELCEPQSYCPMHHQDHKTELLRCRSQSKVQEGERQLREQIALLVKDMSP
UniProt P30622: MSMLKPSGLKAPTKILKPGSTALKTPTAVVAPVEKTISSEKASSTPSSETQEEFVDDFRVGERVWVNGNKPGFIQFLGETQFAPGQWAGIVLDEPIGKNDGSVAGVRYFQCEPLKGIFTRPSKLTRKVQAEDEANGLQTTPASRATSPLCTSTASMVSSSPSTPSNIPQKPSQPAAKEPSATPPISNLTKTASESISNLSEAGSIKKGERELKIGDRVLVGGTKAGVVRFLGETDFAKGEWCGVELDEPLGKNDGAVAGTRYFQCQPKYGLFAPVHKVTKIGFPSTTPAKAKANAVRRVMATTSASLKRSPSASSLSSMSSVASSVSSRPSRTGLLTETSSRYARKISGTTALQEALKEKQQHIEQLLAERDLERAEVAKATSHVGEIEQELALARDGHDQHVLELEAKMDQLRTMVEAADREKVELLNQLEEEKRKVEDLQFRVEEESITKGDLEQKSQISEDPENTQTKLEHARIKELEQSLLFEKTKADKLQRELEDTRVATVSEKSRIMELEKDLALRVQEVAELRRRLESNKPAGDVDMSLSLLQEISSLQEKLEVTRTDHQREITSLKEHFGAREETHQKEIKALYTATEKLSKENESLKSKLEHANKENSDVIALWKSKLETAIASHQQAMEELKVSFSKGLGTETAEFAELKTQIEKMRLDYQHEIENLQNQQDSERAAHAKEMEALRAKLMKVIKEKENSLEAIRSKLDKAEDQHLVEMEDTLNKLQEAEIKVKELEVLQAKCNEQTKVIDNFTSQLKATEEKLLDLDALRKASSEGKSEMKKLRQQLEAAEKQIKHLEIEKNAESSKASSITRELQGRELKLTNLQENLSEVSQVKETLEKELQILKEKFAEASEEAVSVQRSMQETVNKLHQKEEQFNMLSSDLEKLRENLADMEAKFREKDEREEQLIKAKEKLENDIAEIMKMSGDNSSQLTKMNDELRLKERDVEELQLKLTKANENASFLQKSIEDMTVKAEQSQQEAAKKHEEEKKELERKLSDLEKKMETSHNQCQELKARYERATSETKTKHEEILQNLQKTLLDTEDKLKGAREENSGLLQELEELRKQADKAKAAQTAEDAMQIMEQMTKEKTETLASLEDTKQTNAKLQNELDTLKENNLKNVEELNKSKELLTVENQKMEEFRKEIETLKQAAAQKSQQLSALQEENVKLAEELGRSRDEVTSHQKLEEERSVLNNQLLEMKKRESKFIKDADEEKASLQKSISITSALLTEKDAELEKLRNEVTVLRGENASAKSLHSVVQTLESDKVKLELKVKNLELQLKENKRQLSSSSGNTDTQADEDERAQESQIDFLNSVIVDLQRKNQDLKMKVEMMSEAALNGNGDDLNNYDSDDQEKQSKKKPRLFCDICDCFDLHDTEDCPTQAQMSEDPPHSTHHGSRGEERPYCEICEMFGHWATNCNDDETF
UniProt P33552, whole entry: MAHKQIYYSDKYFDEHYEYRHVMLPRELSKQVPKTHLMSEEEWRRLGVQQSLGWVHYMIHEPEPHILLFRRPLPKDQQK
UniProt P31930: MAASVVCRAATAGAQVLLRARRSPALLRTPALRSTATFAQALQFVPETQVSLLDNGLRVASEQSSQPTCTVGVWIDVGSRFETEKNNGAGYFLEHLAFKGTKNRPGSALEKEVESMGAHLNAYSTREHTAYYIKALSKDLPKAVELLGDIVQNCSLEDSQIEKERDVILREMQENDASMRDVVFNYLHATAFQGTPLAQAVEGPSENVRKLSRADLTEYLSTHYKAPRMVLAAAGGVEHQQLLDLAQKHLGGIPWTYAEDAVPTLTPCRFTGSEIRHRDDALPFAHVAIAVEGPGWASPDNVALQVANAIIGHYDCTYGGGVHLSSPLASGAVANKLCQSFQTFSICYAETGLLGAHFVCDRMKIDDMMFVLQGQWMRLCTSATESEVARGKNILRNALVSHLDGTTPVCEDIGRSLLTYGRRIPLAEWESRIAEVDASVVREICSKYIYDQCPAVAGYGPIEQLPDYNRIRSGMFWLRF
UniProt P35789: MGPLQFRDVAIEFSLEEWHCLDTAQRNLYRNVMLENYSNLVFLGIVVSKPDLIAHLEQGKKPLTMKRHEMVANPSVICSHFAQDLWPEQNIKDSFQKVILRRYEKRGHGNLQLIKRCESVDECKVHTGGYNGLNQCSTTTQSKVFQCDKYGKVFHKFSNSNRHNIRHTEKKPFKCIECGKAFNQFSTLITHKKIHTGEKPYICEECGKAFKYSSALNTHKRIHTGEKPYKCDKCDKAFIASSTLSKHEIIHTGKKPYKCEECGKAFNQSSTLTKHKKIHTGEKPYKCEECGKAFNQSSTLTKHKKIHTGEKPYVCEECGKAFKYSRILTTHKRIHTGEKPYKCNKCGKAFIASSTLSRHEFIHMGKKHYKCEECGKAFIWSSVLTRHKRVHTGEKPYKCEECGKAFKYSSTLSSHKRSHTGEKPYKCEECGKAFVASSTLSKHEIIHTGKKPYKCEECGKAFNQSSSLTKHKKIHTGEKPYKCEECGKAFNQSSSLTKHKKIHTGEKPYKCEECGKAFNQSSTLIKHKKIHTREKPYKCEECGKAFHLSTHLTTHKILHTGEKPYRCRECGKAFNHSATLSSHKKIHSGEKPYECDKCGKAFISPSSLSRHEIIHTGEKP
UniProt P42773: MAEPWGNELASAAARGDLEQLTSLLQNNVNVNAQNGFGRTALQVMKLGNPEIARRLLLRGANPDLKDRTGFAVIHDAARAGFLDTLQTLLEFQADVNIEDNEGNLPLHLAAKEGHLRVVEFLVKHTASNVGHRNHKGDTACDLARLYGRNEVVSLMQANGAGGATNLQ
UniProt P29590: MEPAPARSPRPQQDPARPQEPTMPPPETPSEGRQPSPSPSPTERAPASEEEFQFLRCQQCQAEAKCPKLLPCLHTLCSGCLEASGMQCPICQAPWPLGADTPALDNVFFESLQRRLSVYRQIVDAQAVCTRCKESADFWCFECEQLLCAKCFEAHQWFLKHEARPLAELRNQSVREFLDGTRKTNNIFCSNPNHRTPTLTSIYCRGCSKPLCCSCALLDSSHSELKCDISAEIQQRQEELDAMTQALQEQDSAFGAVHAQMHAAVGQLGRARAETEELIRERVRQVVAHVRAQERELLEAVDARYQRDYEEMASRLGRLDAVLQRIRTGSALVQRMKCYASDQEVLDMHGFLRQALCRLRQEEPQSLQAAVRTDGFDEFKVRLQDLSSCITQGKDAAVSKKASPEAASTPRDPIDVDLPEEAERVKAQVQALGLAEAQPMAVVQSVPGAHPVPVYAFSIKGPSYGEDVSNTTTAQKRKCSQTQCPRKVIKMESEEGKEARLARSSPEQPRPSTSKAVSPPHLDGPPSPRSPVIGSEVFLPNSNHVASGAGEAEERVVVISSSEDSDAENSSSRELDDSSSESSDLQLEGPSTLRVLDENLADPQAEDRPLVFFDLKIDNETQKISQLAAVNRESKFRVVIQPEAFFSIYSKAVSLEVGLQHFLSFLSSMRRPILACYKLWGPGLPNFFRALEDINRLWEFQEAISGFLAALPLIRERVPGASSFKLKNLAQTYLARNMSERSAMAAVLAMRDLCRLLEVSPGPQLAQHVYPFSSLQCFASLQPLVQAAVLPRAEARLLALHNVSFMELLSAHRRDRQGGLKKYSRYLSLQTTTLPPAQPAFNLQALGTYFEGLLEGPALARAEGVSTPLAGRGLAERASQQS
UniProt P35610: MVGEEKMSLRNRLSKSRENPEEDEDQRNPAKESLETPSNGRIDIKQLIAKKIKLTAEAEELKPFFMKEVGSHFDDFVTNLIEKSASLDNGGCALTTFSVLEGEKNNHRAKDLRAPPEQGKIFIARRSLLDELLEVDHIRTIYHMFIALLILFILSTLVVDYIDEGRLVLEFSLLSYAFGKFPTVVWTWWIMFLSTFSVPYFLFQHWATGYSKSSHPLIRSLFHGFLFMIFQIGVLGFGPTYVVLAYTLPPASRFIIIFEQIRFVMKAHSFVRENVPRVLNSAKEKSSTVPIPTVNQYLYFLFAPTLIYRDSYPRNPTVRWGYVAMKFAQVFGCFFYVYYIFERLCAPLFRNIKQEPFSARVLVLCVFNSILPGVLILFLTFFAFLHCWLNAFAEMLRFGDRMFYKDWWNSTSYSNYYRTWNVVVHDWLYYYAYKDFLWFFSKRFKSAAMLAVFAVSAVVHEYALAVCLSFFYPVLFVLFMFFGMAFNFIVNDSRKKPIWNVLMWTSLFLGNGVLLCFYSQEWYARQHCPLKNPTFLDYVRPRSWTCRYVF
UniProt P29401: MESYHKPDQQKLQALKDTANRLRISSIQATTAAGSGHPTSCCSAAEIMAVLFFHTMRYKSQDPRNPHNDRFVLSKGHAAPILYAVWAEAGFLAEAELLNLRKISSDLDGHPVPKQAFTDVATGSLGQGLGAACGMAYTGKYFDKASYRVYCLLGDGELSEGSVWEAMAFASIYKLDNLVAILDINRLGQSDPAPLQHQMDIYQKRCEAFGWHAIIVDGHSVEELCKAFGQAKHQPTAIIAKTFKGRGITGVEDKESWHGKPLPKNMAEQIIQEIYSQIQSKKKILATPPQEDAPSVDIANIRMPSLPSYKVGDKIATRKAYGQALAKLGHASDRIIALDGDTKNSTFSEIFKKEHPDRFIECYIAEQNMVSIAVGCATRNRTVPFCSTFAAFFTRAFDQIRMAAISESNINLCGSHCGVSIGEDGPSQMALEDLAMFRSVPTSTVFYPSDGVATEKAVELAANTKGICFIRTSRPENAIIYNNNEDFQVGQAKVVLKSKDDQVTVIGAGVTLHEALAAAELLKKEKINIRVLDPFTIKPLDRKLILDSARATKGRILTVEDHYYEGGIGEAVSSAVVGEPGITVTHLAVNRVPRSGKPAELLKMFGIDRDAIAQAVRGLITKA

The targets below were run with CN[C@@H]1C[C@H]2O[C@@](C)([C@@H]1OC)n1c3ccccc3c3c4c(c5c6ccccc6n2c5c31)C(=O)NC4 [staurosporine] (assay: log2 fold change of tryptic peptide abundance, ligand vs vehicle (limited proteolysis) (log2 ratio); higher = more trypsin-susceptible (destabilized)). Conditions: ligand concentration: 20 uM; sample: K562 cleared lysate; digestion: 4 min, 22 C (HT-PELSA RT4min, Orbitrap Astral).
For “GNL1 (peptide sequence: ALGPEQLLR, peptide start residue: 284) (UniProt P36915)”, the log2 fold change was 0.0919. Target “CDC25C (peptide sequence: IIIVFHCEFSSER, peptide start residue: 371) (UniProt P30307)” has a log2 fold change of 0.359. With “CLIP1 (peptide sequence: IGFPSTTPAK, peptide start residue: 281) (UniProt P30622)” the log2 fold change was 0.369. For “CKS2 (peptide sequence: THLMSEEEWRR, peptide start residue: 35) (UniProt P33552)”, the log2 fold change was -0.37. “UQCRC1 (peptide sequence: NNGAGYFLEHLAFK, peptide start residue: 86) (UniProt P31930)” was tested, and the log2 fold change was 0.312. “ZNF93 (peptide sequence: SHTGEKPYK, peptide start residue: 483) (UniProt P35789)” showed a log2 fold change of -0.398. “PIK3CA (peptide sequence: SMLLSSEQLK, peptide start residue: 231) (UniProt P42336)” was tested, and the log2 fold change was 0.111. With “CDKN2C (peptide sequence: NHKGDTACDLAR, peptide start residue: 134) (UniProt P42773)” the log2 fold change was 1.19. Target “PML (peptide sequence: ASPEAASTPR, peptide start residue: 402) (UniProt P29590)” has a log2 fold change of -0.483. “SOAT1 (peptide sequence: LTAEAEELKPFFMK, peptide start residue: 54) (UniProt P35610)” was tested, and the log2 fold change was 0.188. “TKT (peptide sequence: AVELAANTK, peptide start residue: 457) (UniProt P29401)” showed a log2 fold change of -0.334.
